PubChem BioAssay AID504764, Drosophila RNAi Screening Center, 2011
The deposit covers about 22,000 reagents; shown is a random part of those with a known target gene and a result. In the full data, 403 (1.9%) were called active. 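Unnormalised raw counts per well; ratio z-scores behind the hit calls and whether each hit raises or lowers signal are not deposited.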 The record does not give: the amount of reagent.

- Assay: 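Genome-wide screen for regulators of Notch-driven gene expression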 (primary screen)
- Cells: Drosophila Kc167 cells
- Knock-down reagent: long dsRNA against Drosophila genes
- Time to read-out: about 5 days (4 days dsRNA, then 24 h after transfection)
- Challenge: transfection of constitutively active membrane-tethered Notch lacking the extracellular domain, read 24 h later
- Read-out: 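Light from a Notch-responsive E(spl)m3 luciferase reporter under active Notch, with control-promoter and no-Notch reporter wells to normalise; raw counts from paired wells a and b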
- Scale: induced reporter light, run 1, well a and induced reporter light, run 1, well b: higher = more light from the Notch target reporter with active Notch; control promoter light, run 1, well a and control promoter light, run 1, well b: higher = more light from the viral control promoter (cell number, transfection, viability); uninduced reporter light, run 1, well a: higher = more light from the Notch target reporter without active Notch
- Call rule: 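Hit if the duplicate-averaged log2 ratio of induced to control-promoter light gives a plate-wise z beyond ±2, or induced to uninduced beyond ±1.8; weak-control or discordant-duplicate wells dropped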
- Meaning of the calls: active = modifier hit (raised or lowered Notch signal); inactive = not a hit

With CG14195 [SID104199342], what was measured?
induced reporter light, run 1, well a: 73380; induced reporter light, run 1, well b: 77760; control promoter light, run 1, well a: 99695; control promoter light, run 1, well b: 1.04e5; uninduced reporter light, run 1, well a: 10992; outcome: inactive

With CG10734 [SID104185790], how do the results read?
induced reporter light, run 1, well a: 1.04e5; induced reporter light, run 1, well b: 96515; control promoter light, run 1, well a: 98100; control promoter light, run 1, well b: 1.05e5; uninduced reporter light, run 1, well a: 10225; outcome: inactive

Which result is listed for Cbs [SID104200345]?
induced reporter light, run 1, well a: 1.21e5; induced reporter light, run 1, well b: 1.02e5; control promoter light, run 1, well a: 1.00e5; control promoter light, run 1, well b: 54470; uninduced reporter light, run 1, well a: 9390; outcome: inactive

For RpL30 [SID104181879], what does the deposit list?
induced reporter light, run 1, well a: 20245; induced reporter light, run 1, well b: 17720; control promoter light, run 1, well a: 40990; control promoter light, run 1, well b: 26020; uninduced reporter light, run 1, well a: 1290; outcome: inactive

For GstT3 [SID104200333], how do the results read?
induced reporter light, run 1, well a: 92945; induced reporter light, run 1, well b: 97730; control promoter light, run 1, well a: 1.08e5; control promoter light, run 1, well b: 1.15e5; uninduced reporter light, run 1, well a: 9640; outcome: inactive

What is on record for drl [SID104183315]?
induced reporter light, run 1, well a: 1.94e5; induced reporter light, run 1, well b: 1.88e5; control promoter light, run 1, well a: 1.74e5; control promoter light, run 1, well b: 1.76e5; uninduced reporter light, run 1, well a: 13800; outcome: inactive

What did the screen give for CG17321 [SID104182390]?
induced reporter light, run 1, well a: 35795; induced reporter light, run 1, well b: 40220; control promoter light, run 1, well a: 39320; control promoter light, run 1, well b: 26770; uninduced reporter light, run 1, well a: 3030; outcome: inactive

How did the screen score CG11396 [SID104191446]?
induced reporter light, run 1, well a: 1.02e5; induced reporter light, run 1, well b: 96175; control promoter light, run 1, well a: 89040; control promoter light, run 1, well b: 1.01e5; uninduced reporter light, run 1, well a: 8635; outcome: inactive

With RpS8 [SID104196110], how do the results read?
induced reporter light, run 1, well a: 5938; induced reporter light, run 1, well b: 8750; control promoter light, run 1, well a: 15210; control promoter light, run 1, well b: 12945; uninduced reporter light, run 1, well a: 970; outcome: inactive

With Faf2 [SID104183117], what was measured?
induced reporter light, run 1, well a: 2.47e5; induced reporter light, run 1, well b: 3.25e5; control promoter light, run 1, well a: 2.46e5; control promoter light, run 1, well b: 2.66e5; uninduced reporter light, run 1, well a: 19830; outcome: inactive

With GlcAT-S [SID104182523], what does the deposit list?
induced reporter light, run 1, well a: 2.55e5; induced reporter light, run 1, well b: 2.54e5; control promoter light, run 1, well a: 2.55e5; control promoter light, run 1, well b: 2.73e5; uninduced reporter light, run 1, well a: 17855; outcome: inactive

For CG4991 [SID104199720], what does the deposit list?
induced reporter light, run 1, well a: 1.16e5; induced reporter light, run 1, well b: 1.36e5; control promoter light, run 1, well a: 98625; control promoter light, run 1, well b: 40130; uninduced reporter light, run 1, well a: 10020; outcome: inactive

Reformatted: entries from further up.
{"gene": "RpS8", "PubChem SID": "SID104196110", "induced reporter light, run 1, well a": 5938, "induced reporter light, run 1, well b": 8750, "control promoter light, run 1, well a": 15210, "control promoter light, run 1, well b": 12945, "uninduced reporter light, run 1, well a": 970, "outcome": "inactive"}
{"gene": "Faf2", "PubChem SID": "SID104183117", "induced reporter light, run 1, well a": 2.47e5, "induced reporter light, run 1, well b": 3.25e5, "control promoter light, run 1, well a": 2.46e5, "control promoter light, run 1, well b": 2.66e5, "uninduced reporter light, run 1, well a": 19830, "outcome": "inactive"}
